Measurements published in PMC11426234.
These are yes or no findings as the source states them, for the method shown. In cells and extracts the contact can be indirect. A yes stands for co-enrichment or nearness to the bait. Other partners may have been found.

Chains of the proteins cited; added tags and fusions are not shown. Residues count along the entry.
UniProt P29317, residues 24-976: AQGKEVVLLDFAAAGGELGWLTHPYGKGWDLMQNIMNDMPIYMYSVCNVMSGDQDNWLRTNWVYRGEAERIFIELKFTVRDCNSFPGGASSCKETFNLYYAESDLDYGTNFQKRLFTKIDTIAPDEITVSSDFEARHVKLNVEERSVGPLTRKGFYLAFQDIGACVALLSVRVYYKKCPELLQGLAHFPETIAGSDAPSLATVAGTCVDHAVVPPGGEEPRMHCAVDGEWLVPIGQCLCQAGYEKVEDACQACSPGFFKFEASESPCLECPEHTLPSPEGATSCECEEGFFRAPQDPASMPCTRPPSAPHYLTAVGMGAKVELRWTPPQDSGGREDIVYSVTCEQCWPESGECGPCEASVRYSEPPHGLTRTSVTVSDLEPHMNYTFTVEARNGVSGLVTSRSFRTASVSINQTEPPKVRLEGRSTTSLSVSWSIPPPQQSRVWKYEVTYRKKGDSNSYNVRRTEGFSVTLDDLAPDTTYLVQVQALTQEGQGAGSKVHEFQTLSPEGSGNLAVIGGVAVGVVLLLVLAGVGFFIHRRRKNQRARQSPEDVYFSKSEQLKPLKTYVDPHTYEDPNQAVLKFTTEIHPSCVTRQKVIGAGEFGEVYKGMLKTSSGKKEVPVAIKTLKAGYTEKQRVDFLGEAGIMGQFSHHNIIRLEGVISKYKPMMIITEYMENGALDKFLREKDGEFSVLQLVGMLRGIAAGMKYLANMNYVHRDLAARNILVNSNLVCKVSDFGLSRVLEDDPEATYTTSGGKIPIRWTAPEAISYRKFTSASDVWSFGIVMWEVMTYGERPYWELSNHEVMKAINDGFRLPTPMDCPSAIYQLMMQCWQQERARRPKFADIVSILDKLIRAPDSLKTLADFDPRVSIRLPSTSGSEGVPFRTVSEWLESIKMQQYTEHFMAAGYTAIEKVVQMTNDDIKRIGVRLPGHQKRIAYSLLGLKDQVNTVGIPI

Biological target: T1, transforming growth factor beta-induced protein (TGFBI), endogenous in GSCs (human (endogenous in T3691 GSCs)) (UniProt Q15582)
T1 sequence: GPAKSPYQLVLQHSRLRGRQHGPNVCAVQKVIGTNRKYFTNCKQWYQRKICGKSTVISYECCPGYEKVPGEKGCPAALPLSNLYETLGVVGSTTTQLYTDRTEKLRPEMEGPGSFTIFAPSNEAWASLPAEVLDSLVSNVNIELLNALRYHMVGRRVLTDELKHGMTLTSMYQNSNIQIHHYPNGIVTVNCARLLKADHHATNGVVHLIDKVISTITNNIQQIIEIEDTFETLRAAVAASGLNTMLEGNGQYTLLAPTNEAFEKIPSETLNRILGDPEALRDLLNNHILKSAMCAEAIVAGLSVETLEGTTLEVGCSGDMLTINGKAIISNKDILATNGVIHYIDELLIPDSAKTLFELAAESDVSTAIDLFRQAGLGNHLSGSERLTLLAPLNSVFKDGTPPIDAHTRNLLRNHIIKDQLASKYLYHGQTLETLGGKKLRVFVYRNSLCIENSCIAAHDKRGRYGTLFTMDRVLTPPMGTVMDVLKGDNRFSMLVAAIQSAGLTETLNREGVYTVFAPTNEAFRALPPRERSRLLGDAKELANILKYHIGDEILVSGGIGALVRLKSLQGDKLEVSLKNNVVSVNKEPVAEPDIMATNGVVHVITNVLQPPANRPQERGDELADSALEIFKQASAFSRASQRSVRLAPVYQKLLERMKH
Assay: affinity purification with mass spectrometry; T3691 GSCs under hypoxia lysed in IP lysis buffer; anti-TGFBI antibody or IgG with protein A/G agarose overnight at 4°C; SDS-PAGE, gel fragments, LC-MS/MS (Q Exactive HF-X)

binding: binds
Substance: EphA2, endogenous in GSCs (from UniProt P29317 24-976) (receptor)
